# PubChem BioAssay AID540256 (National Center for Advancing Translational Sciences (NCATS), 2011)
# Several values for one entry are separate records, joined by “and”; a condition that tells them apart may be missing. Identical values can stand only once. The campaign covered roughly 300,000 compounds. About 3,700 (1.2%) were called active. The shares of active, inactive and inconclusive entries below differ from those in the screen. The call rests on the fitted dose curve; tested in HEK293 cells. A potency beside an inconclusive call is a rough fit, not a confirmed value.
# Experiment: qHTS for Inhibitors of binding or entry into cells for Lassa Virus; further: nearly all actives have a fitted effect of over 50% in size
# Details: Lassa virus pseudotype entry inhibition, cell reporter; series mostly up to 37.9 µM
# Potency means the concentration at half of the fitted maximal effect.
row,Structure (SMILES),Potency
1,COc1ccc(C(CNC(=O)CSc2ccc(Br)cc2C)N2CCOCC2)cc1 (centres undefined),inactive
2,COCCNC(=O)c1ccccc1NC(=O)Nc1ccccc1,inactive
3,COc1cc(/C=N/N=C2\CC3CCC2(C)C3(C)C)ccc1O (centres undefined),inactive
4,COc1ccc(/C=N\NC(=O)c2ccccc2)cc1COc1ccccc1,"inconclusive: 10 µM [inhibitor, partial curve, poor fit]"
5,Cc1nc(N2CCCC2)ncc1C(=O)Nc1ccc(F)cc1F,inactive
6,O=[N+]([O-])c1ccccc1Oc1ccc(Cl)c2cccnc12,"inconclusive: 22.4 µM [inhibitor, single point]"
7,O=C(NCCN1CCOCC1)c1cc2ccccc2o1,inactive
8,Cc1ccc(C(=O)CCC2CCCCC2=O)cc1 (centres undefined),"inconclusive: 0.231 µM [activator, full curve, poor fit]"
9,Cc1cccc(-n2c(C)cc(C=C(C#N)C#N)c2C)c1,inactive
10,CCOC(=O)CC(NC(=O)CCc1c(C)nc2nc(C)nn2c1C)c1ccc(C)cc1 (centres undefined),inactive
11,O=[N+]([O-])c1ccc(Oc2cccnc2)c([N+](=O)[O-])c1,"inconclusive: 10 µM [inhibitor, partial curve, poor fit]"
12,Cc1cc(C(=O)N/N=C/c2cccn2C)no1,inactive
13,COc1ccc(OCC(=O)Nc2cccc(-c3nc4ccccc4s3)c2C)cc1,inactive
14,COc1ccc(COCC(O)CN(Cc2ccco2)Cc2ccccc2O)cc1 (centres undefined),"inconclusive: 11.2 µM [inhibitor, partial curve, poor fit]"
15,CCN(CC)c1ccc(/C=N/N2CCOCC2)c(O)c1,"inconclusive: 0.501 µM [inhibitor, full curve, poor fit]"
16,CCN(CC)C(C)C(=O)NCC1(c2ccccc2)CCOCC1 (centres undefined),"inconclusive: 11.6 µM [activator, partial curve, poor fit]"
17,Nc1nc(CSc2nc3ccccc3s2)nc(N2CCCCC2)n1,"inconclusive: 35.5 µM [inhibitor, single point]"
18,N#Cc1cn(-c2ccccc2)nc1-c1ccco1,inactive
19,COc1ccc(N(CC(=O)NCCSc2ccc(C)cc2)S(=O)(=O)c2ccccc2)c(OC)c1,"inconclusive: 3.16 µM [inhibitor, single point]"
20,Cc1ccc(C(O)CSc2nnc(-c3ccc4ccccc4c3)n2C)cc1 (centres undefined),"inconclusive: 35.5 µM [inhibitor, single point]"
21,O=C(Nc1ccccc1)Nc1ccc(C(=O)N2CCOCC2)cc1,"inconclusive: 18.3 µM [inhibitor, single point]"
22,CC(C)(C)NC(=O)/C=C/c1ccc(C(F)(F)F)cc1,inactive
23,CN1/C(=C/C(=O)c2nc(S(C)(=O)=O)ncc2Cl)C(C)(C)c2ccccc21,active: 15.8 µM
24,CCc1ccc(C(=O)c2cn(CC(=O)Nc3ccc(C)c(C)c3)c3ccccc3c2=O)cc1,"inconclusive: 7.94 µM [inhibitor, partial curve, poor fit]"
25,COc1ccc(OCC(=O)N/N=C/c2ccc(O[C@@H]3O[C@H](CO)[C@@H](O)[C@H](O)[C@H]3O)cc2)cc1,"inconclusive: 2.06 µM [inhibitor, partial curve, poor fit]"

row,Structure (SMILES),Potency
1,O=C(NCC1CCCO1)c1c[nH]c2ccc(S(=O)(=O)Nc3cccc(C(F)(F)F)c3)cc2c1=O (centres undefined),inactive
2,FC(F)(F)c1cccc(N2CCN(C(=S)NCC3CCCO3)CC2)c1 (centres undefined),"inconclusive: 12.6 µM [inhibitor, partial curve, poor fit]"
3,CC/C(=N\OC(=O)c1ccc(OC(C)C)cc1)c1ccc(C)cc1,"inconclusive: 15.8 µM [inhibitor, partial curve, poor fit]"
4,Cc1c(Cl)cccc1NC(=O)Cn1cnc2nc3c(cc2c1=O)CCCC3,inactive
5,COc1ccc(CNc2ccncc2)c(OC)c1OC,inactive
6,O=C(c1cc(-c2ccc3c(c2)OCO3)on1)N1CCCCC1,active: 2.82 µM
7,CC(=O)c1ccc(-n2nnnc2SCC(=O)Nc2cccc(NC(=O)c3ccco3)c2)cc1,"inconclusive: 20 µM [inhibitor, single point]"
8,CCCCCCCCOC(=O)c1ccc(N)cc1,inactive
9,Cc1ccc(CN2CCc3nc(N4CCN(C)CC4)ncc3C2)s1,inactive
10,O=C(NCc1nnnn1-c1ccc(F)cc1)C1CC(=O)N(c2ccc(F)cc2)C1 (centres undefined),inactive
11,Cc1ccc(N=Nc2c(N)nn(-c3ccccc3)c2N)cc1,"inactive and inconclusive: 7.08 µM [inhibitor, partial curve, poor fit]"
12,Cc1ccccc1C(=O)NN1CCOCC1,inactive
13,O=C(N/N=C/c1ccc2ccccc2c1)c1ccc(COc2ccc3c(c2)CCC3)o1,"inconclusive: 0.891 µM [inhibitor, partial curve, poor fit]"
14,COc1ccc(C2CNC(=O)C2)cc1OC1CCCC1 (centres undefined),"inconclusive: 0.0651 µM [inhibitor, partial curve, poor fit]"
15,CCOC(=O)C1=C(C)NC(C)=C(C(=O)OCC)C1C(=O)OCC(=O)c1ccc2c(c1)OCCO2,"inconclusive: 29.1 µM [inhibitor, single point]"
16,CN(CCOc1ccc(Cl)cc1)c1ccc(S(=O)(=O)N2CCCCC2)cn1,"inconclusive: 32.6 µM [inhibitor, single point]"
17,CC[n+]1c(-c2ccc(C)cc2)csc1Nc1c(C)n(C)n(-c2ccccc2)c1=O,"inconclusive: 17.8 µM [inhibitor, single point]"
18,COc1ccc(NC(=S)N(CCCN2CCOCC2)Cc2cn(C)c3ccccc23)cc1,"inconclusive: 23.1 µM [inhibitor, partial curve, poor fit]"
19,Cc1cccc(N(C)C(=O)CCNS(=O)(=O)c2ccc3c(c2)CCN3C(=O)C2CC2)c1,inactive
20,CC(/C=C/c1cccc(Oc2ccc(F)cc2)c1)N(O)C(N)=O (centres undefined),"inconclusive: 23.1 µM [inhibitor, partial curve, poor fit]"
21,O=C(c1ccc2snnc2c1)N1CCN(c2ccccn2)CC1,inactive
22,Cc1cccc(C(O)(C(=O)NNC(=O)CN2CCN(C)CC2)c2cccc(C)c2)c1,inactive
23,O=c1c(O)c(-c2ccc(O)cc2O)oc2cc(O)cc(O)c12,"inconclusive: 0.0031 µM [inhibitor, full curve, poor fit]"
24,Cn1cc(/C(Cc2ccccc2)=N\O)c2ccccc21,inactive
25,CC(=O)N(c1ccccc1)c1ccc([N+](=O)[O-])cc1[N+](=O)[O-],inactive

row,Structure (SMILES),Potency
1,COc1cc(OC)cc(-c2nnc(SCC(=O)N3CCCC3)o2)c1,"inconclusive: 35.5 µM [inhibitor, single point]"
2,COc1ccc2cc(C(C)C(=O)NC3CCC(O)CC3)ccc2c1 (centres undefined),"inconclusive: 0.562 µM [inhibitor, full curve, poor fit]"
3,O=C(OCC(O)C(O)C(O)C(SCc1ccccc1)SCc1ccccc1)c1ccccc1 (centres undefined),"inconclusive: 3.16 µM [inhibitor, partial curve, poor fit]"
4,Cc1cc(C)cc(OCc2ccc(C(=O)Nc3ccccc3F)o2)c1,inactive
5,CCOc1ccc(C2C(C(=O)OC)=CN(CCOC)C=C2C(=O)OC)cc1,inactive
6,CCc1cccc(NC(=O)CSc2ncccc2C(=O)Oc2ccccc2Cl)c1,inactive
7,COC(=O)c1c(NC(=O)c2cccs2)sc2c1CCC(C)C2 (centres undefined),"inconclusive: 3.98 µM [activator, partial curve]"
8,N#CC1c2ccccc2C=CN1C(=O)c1ccccc1 (centres undefined),"inconclusive: 10 µM [inhibitor, partial curve, poor fit]"
9,Cc1cc(C)n(-c2ccc(C(=O)OCC(=O)NCc3ccc(Cl)cc3)cc2)n1,"inconclusive: 0.13 µM [activator, full curve, poor fit]"
10,O=C(Nc1ncc2c(n1)CC(c1ccco1)CC2=O)c1ccco1 (centres undefined),inactive
11,COC(=O)C(CC(C)C)NC(=O)CNC(=O)c1ccccc1C (centres undefined),"inconclusive: 4.11 µM [activator, full curve, poor fit]"
12,CCOc1ccc(NC(=O)CCS(=O)(=O)c2cccc3nonc23)cc1,inactive
13,Cc1ccc(-n2ncc3c(N4CCN(C)CC4)ncnc32)cc1Cl,"inconclusive: 0.631 µM [activator, full curve, poor fit]"
14,Cc1oc(C(C)(C)C)cc1C(N)=O,"inconclusive: 35.5 µM [activator, single point]"
15,CNC(=O)c1ccc(Nc2nnc(-c3ccc(C)c(S(=O)(=O)N4CCCCC4)c3)c3ccccc23)cc1,inactive
16,Cc1ccc(OCC(=O)Nc2ccccc2C(N)=O)cc1,"inconclusive: 35.5 µM [inhibitor, partial curve, poor fit]"
17,CCOC(=O)c1c(NC(=O)c2cc(C)on2)sc(C)c1C,inactive
18,O=C(NNC(=O)[C@@H]1CCCC[C@@H]1C(=O)O)Nc1ccccc1,"inconclusive: 29.1 µM [activator, single point]"
19,O=C(c1ccc(CS(=O)Cc2ccccc2Cl)o1)N1CCN(c2cccc(Cl)c2)CC1 (centres undefined),"inconclusive: 11.2 µM [inhibitor, partial curve, poor fit]"
20,COc1ccc(/C=C/C(=O)Nc2sc3c(c2C(N)=O)CCC(C)C3)cc1OC (centres undefined),inactive
21,COc1ccc(NC(=O)CSc2ccc(-c3ccccn3)nn2)cc1OC,"inconclusive: 22.4 µM [inhibitor, single point]"
22,CCN(CC)c1ccc(/C=N/NC(=O)OC(C)(C)C)cc1,"inconclusive: 14.1 µM [inhibitor, single point]"
23,COc1cc(NC(=O)Cc2c(C(=O)O)c(C)cn2C)cc(OC)c1,inactive
24,Cc1ccc(NC(=O)CCC(=O)N2CCC(c3ccccc3)=N2)cc1S(=O)(=O)N1CCCCC1,"inconclusive: 35.5 µM [inhibitor, single point]"
